From PMC12146697
These are yes or no findings as the source states them, for the method shown. Binding seen in cells or lysates may run through a third protein. These calls come from enrichment with a bait or labelling near it, and not all partners need be listed.

Chains of the proteins cited; added tags and fusions are not shown. Lines headed by an entry give the natural chain unless they say otherwise; changes in a name come on top.
UniProt P20340: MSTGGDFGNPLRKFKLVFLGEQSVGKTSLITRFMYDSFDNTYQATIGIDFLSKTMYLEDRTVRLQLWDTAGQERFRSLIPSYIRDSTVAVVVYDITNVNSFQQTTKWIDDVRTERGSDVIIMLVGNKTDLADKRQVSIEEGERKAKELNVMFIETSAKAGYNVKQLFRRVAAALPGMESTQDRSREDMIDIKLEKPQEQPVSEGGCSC
UniProt Q9QZB7: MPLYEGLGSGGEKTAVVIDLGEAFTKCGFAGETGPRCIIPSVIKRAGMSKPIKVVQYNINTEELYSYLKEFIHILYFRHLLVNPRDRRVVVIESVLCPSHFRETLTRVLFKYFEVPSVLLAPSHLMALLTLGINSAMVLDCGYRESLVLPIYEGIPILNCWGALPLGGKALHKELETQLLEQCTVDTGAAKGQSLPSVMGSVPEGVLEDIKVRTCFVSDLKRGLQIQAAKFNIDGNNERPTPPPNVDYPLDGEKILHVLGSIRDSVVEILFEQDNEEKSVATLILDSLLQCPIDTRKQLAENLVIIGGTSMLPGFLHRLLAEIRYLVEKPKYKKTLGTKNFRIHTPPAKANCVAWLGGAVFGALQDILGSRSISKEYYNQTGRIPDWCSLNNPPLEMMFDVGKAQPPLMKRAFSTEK
UniProt Q8C9S4: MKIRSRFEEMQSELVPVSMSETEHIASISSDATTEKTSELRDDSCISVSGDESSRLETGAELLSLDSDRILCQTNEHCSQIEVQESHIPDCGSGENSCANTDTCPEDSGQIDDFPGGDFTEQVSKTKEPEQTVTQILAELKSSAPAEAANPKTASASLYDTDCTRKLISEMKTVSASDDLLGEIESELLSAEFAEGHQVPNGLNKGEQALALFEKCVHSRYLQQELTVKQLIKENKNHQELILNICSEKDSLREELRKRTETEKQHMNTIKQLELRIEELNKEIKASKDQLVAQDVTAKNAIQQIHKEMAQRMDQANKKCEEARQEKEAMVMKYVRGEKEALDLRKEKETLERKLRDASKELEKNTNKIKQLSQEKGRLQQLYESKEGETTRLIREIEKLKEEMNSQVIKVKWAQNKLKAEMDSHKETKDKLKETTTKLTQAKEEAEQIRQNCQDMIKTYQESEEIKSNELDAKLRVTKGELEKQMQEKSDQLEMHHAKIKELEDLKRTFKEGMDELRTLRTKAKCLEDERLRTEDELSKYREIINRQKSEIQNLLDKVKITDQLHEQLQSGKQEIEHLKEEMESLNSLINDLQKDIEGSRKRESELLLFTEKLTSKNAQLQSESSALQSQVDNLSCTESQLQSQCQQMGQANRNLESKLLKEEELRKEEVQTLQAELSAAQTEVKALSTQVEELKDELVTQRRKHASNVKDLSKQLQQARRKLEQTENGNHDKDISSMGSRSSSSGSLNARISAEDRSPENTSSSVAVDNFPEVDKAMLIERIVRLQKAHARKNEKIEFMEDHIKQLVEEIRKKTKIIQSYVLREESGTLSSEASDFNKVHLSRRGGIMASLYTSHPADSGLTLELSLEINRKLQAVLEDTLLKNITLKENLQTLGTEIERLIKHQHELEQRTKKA
UniProt O08788: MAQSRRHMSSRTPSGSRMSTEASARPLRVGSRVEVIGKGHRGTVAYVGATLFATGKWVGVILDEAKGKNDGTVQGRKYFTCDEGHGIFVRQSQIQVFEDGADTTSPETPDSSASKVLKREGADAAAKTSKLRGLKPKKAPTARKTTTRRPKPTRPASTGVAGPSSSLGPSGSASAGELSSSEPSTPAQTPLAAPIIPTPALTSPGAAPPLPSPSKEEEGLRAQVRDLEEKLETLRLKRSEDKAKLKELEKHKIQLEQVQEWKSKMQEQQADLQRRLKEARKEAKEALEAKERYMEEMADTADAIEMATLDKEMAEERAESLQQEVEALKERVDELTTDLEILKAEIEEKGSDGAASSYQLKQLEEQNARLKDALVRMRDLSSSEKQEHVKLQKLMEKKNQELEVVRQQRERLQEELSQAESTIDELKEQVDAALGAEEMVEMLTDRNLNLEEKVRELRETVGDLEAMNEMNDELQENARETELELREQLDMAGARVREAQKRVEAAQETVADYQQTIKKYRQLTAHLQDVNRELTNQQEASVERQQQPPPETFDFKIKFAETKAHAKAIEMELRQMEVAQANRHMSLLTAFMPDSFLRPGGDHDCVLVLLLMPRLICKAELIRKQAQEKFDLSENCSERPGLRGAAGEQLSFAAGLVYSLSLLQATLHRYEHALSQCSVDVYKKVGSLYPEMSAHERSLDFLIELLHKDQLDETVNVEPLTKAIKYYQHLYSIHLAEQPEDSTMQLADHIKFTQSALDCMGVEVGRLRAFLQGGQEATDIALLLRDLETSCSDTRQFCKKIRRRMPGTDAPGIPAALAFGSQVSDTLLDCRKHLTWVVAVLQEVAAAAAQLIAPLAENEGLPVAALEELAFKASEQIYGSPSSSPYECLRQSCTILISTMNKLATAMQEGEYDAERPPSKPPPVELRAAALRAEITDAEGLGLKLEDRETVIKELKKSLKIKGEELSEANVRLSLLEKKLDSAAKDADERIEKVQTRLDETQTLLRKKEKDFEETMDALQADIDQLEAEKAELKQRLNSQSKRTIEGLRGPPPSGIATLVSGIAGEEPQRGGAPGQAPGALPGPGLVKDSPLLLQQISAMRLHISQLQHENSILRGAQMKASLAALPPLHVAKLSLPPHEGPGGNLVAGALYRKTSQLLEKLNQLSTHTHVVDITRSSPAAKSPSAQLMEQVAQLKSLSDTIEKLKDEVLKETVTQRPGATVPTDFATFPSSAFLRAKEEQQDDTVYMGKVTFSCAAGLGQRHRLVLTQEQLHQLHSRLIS
UniProt Q99KJ8: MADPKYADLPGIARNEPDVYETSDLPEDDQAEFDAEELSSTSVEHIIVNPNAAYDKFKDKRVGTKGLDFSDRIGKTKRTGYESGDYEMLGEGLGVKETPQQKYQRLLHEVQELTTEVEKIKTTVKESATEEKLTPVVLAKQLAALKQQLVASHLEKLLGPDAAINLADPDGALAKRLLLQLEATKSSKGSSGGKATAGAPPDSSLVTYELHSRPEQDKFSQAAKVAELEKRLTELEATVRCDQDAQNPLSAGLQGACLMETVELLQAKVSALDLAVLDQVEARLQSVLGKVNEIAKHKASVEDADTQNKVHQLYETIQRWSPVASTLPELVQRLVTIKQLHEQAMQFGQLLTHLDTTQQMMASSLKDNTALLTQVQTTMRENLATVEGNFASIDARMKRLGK
UniProt Q9Z0Y1: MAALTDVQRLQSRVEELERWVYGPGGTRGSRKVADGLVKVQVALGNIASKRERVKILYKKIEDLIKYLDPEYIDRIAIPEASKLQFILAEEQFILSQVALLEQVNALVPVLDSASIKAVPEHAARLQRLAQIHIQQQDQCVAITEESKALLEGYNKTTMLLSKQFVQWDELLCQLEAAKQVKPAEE
UniProt Q8CBY8: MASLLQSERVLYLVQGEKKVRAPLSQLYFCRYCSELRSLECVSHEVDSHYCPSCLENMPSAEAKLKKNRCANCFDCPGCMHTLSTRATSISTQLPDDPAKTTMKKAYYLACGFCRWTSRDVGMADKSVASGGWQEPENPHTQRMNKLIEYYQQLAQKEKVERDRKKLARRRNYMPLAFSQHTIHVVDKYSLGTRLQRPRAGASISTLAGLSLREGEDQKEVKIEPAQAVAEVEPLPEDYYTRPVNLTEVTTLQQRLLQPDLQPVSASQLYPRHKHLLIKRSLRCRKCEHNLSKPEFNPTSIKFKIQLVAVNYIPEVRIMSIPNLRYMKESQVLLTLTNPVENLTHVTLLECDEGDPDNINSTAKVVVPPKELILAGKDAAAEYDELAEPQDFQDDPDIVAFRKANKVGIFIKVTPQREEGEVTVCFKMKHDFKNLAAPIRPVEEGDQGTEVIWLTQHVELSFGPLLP
UniProt O88485: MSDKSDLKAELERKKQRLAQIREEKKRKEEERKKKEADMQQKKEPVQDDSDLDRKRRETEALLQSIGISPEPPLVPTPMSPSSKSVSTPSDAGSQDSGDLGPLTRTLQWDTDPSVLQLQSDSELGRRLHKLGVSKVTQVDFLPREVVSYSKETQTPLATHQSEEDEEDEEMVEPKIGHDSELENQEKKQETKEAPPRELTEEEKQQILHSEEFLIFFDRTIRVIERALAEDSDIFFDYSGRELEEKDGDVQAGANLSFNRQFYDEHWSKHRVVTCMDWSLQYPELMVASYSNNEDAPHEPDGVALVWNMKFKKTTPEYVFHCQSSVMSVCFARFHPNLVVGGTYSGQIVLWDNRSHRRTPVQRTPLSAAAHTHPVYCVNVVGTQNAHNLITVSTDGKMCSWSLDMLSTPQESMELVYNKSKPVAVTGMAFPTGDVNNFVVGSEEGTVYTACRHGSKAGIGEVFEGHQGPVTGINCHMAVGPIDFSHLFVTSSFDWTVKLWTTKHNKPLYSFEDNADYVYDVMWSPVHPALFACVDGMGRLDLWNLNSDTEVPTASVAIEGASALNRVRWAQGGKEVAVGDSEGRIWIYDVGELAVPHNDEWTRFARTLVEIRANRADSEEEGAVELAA

B1: Elks1 (protein, UniProt Q99MI1 1-1120)
chain: MYGSARSVGKVEPSSQSPGRSPRLPRSPRLGHRRTNSTGGSSGNSVGGGSGKTLSMENIQSLNAAYATSGPMYLSDHENVGAETPKSTMTLGRSGGRLPYGVRMTAMGSSPNIASSGVASDTIAFGEHHLPPVSMASTVPHSLRQARDNTIMDLQTQLKEVLRENDLLRKDVEVKESKLSSSMNSIKTFWSPELKKERALRKDEASKITIWKEQYRVVQEENQHMQMTIQALQDELRIQRDLNQLFQQDSSSRTGEPCVAELTEENFQRLHAEHERQAKELFLLRKTLEEMELRIETQKQTLNARDESIKKLLEMLQSKGLSAKATEEDHERTRRLAEAEMHVHHLESLLEQKEKENNMLREEMHRRFENAPDSAKTKALQTVIEMKDSKISSMERGLRDLEEEIQMLKSNGALSSEEREEEMKQMEVYRSHSKFMKNKVEQLKEELSSKDAQGEELKKRAAGLQSEIGQVKQELSRKDTELLALQTKLETLTNQFSDSKQHIEVLKESLTAKEQRAAILQTEVDALRLRLEEKETMLNKKTKQIQDMAEEKGTQAGEIHDLKDMLDVKERKVNVLQKKIENLQEQLRDKEKQMSSLKERVKSLQADTTNTDTALTTLEEALADKERTIERLKEQRDRDEREKQEEIDTYKKDLKDLREKVSLLQGDLSEKEASLLDIKEHASSLASSGLKKDSRLKTLEIALEQKKEECLKMESQLKKAHEATLEARASPEMSDRIQQLEREISRYKDESSKAQTEVDRLLEILKEVENEKNDKDKKIAELESLTSRQVKDQNKKVANLKHKEQVEKKKSAQMLEEARRREDSLSDSSQQLQDSLRKKDDRIEELEEALRESVQITAEREMVLAQEESARTNAEKQVEELLMAMEKVKQELESMKAKLSSTQQSLAEKETHLTNLRAERRKHLEEVLEMKQEALLAAISEKDANIALLELSSSKKKTQEEVAALKREKDRLVQQLKQQTQNRMKLMADNYEDDHFRSSRSNQTNHKPSPDQIIQPLLELDQNRSKLKLYIGHLTALCHDRDPLILRGLTPPASYNADGEQAAWENELQQMTQEQLQNELEKVEGDNAELQEFANTILQQIADHCPDILEQVVNALEESS
B2: Oxr1 (endogenous, mouse brain) (protein, UniProt Q4KMM3 1-866)
chain: MSVSNLSWLKKKSQSVDITAPGFNPLGGAGKQAPQASKPPAPKTPIIEEEQNNSANTQKHPSRKSELKRFYTIDTGQKKTLDKKDGRRMSFQKPKGTIEYTVESRDSLNSIALKFDTTPNELVQLNKLFSRAVVTGQVLYVPDPEYVSSVESSPSLSPVSPLSPTSSEAEFDKTTTPDVAHPKEAPPASTVSGIRPARVVSSTSEEEEAFTEKFLKINCKYITIGKGTVSGVLLVTPNNIMFDPHKTDPLVQENGCEEYGIMCPMEEVMSAAMYKEILDSKIKESLPIELDQLSGRGSCHSKKATGVSAEDADPRARDQGNDSASTAPRSTEESLSEDAFTESELSPIREELLSSEPRQEKSSDASSESVQTVSQMEVQSLTATSEAANVPDRTSSNPGALSHETGLSGLETATKGGDKATESLQEVSGPKEQSTEVKGQDNQDSSHQESSLQQEAGEDSVSSGETVELKEKPAVLKDQQGQELKRDSETEVEELRKLWKTHSMQQAKQQRDTIQQVSQRESKHSSAAADAHGEGSSLLKEKRRHRLHKFLCLRVGKPMRKTFVSQASATMQQYAQRDKKHEYWFAVPQERTDHLYAFFIQWSPEIYAEDSGEYTREPGFIVVKKMDESEANEAPAGEAAAREWEVVSVAEYHRRIDALNTEELRTLCRRLQITTREDINSKQVAPAKADLEPESFRPNLSDPSELLLPDQIEKLTKHLPPRTIGYPWTLVYGTGKHGTSLKTLYRTMTGLDTPVLMVIKDSDGQVFGALASEPFKVSDGFYGTGETFVFTFCPEFEVFKWTGDNMFFIKGDMDSLAFGGGGGEFALWLDGDLYHGRSHSCKTFGNHTLSKKEDFFIQDIEIWAFE
B3: Elks2 (protein, UniProt Q6PH08 1-957)
chain: MYGSARTISNLEGSPSRSPRLPRSPRLGHRRTSSGGGGGTGKTLSMENIQSLNAAYATSGPMYLSDHEGVASTTYPKGTMTLGRATNRAVYGGRVTAMGSSPNIASAGLSHTDVLSYTDQHGGLSGSSHHHHHQVPSMLRQVRDSTMLDLQAQLKELQRENDLLRKELDIKDSKLGSSMNSIKTFWSPELKKERVLRKEEAARMSVLKEQMRVSHEENQHLQLTIQALQDELRTQRDLNHLLQQESGNRGAEHFTIELTEENFRRLQAEHDRQAKELFLLRKTLEEMELRIETQKQTLNARDESIKKLLEMLQSKGLPSKSLEDDNERTRRMAEAESQVSHLEVILDQKEKENIHLREELHRRSQLQPEPAKTKALQTVIEMKDTKIASLERNIRDLEDEVQMLKANGVLNTEDREEEIKQIEVYKSHSKFMKTKIDQLKQELSKKESELLALQTKLETLSNQNSDCKQHIEVLKESLTAKEQRAAILQTEVDALRLRLEEKESFLNKKTKQLQDLTEEKGTLAGEIRDMKDMLEVKERKINVLQKKIENLQEQLRDKDKQLTNLKDRVKSLQTDSSNTDTALATLEEALSEKERIIERLKEQRERDDRERLEEIESFRKENKDLKEKVNALQAELTEKESSLIDLKEHASSLASAGLKRDSKLKSLEIAIEQKKEECNKLEAQLKKAHNIEDDSRMNPEFADRLKQLDKEASYYRDECGKAQAEVDRLLEILKEVENEKNDKDKKIAELESLTLRHMKDQNKKVANLKYNQQLEKKKNAQLLEEVRRREDSMVDNSQHLQIEELMNALEKTRQELDATKARLASTQQSLAEKEAHLANLRIERRKQLEEILEMKQEALLAAISEKDANIALLELSASKKKKTQEEVMALKREKDRLVHQLKQQTQNRMKLMADNYDEDHHHYHHHHHHHHHRSPGRSQHSNHRPSPDQDDEEGIWA

Biological target: GST-fused GTP-bound Rab6a Q72A (UniProt P20340)
Test: affinity purification with mass spectrometry; GST-fused GTP-bound Rab6a Q72A (or GDP-bound T27N) immobilised, mouse brain lysate; silver-stained SDS-PAGE, bands by mass spectrometry; Oxr1 confirmed by immunoblot with anti-Oxr1; only the target purified

binding, binds:
Actr10 (from UniProt Q9QZB7 1-417), CapZb (from UniProt P47757 1-277), Ccdc186 (from UniProt Q8C9S4 1-917), Dctn1 (from UniProt O08788 1-1281), Dctn2 (from UniProt Q99KJ8 1-402), Dctn3 (from UniProt Q9Z0Y1 1-186), Dctn4 (from UniProt Q8CBY8 1-467), Dync1i1 (from UniProt O88485 1-628), B1, B2, B3
